Article PMC8135160
These are yes or no findings as the source states them, for the method shown. Binding seen in cells or lysates may run through a third protein. Some entries that bind do so weakly or less than the wild type. Sequences can lack the tags named with a protein.

Chains of the proteins cited; added tags and fusions are not shown.
UniProt P05412: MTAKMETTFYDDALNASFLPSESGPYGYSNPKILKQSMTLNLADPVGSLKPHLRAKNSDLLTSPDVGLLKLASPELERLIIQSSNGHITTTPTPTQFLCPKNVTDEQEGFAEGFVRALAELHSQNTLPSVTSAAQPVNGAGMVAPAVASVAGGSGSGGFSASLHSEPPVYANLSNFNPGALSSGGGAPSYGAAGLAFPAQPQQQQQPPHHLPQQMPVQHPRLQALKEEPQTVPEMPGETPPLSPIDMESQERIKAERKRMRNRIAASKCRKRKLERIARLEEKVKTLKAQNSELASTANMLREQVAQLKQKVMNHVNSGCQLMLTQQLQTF
UniProt Q09472: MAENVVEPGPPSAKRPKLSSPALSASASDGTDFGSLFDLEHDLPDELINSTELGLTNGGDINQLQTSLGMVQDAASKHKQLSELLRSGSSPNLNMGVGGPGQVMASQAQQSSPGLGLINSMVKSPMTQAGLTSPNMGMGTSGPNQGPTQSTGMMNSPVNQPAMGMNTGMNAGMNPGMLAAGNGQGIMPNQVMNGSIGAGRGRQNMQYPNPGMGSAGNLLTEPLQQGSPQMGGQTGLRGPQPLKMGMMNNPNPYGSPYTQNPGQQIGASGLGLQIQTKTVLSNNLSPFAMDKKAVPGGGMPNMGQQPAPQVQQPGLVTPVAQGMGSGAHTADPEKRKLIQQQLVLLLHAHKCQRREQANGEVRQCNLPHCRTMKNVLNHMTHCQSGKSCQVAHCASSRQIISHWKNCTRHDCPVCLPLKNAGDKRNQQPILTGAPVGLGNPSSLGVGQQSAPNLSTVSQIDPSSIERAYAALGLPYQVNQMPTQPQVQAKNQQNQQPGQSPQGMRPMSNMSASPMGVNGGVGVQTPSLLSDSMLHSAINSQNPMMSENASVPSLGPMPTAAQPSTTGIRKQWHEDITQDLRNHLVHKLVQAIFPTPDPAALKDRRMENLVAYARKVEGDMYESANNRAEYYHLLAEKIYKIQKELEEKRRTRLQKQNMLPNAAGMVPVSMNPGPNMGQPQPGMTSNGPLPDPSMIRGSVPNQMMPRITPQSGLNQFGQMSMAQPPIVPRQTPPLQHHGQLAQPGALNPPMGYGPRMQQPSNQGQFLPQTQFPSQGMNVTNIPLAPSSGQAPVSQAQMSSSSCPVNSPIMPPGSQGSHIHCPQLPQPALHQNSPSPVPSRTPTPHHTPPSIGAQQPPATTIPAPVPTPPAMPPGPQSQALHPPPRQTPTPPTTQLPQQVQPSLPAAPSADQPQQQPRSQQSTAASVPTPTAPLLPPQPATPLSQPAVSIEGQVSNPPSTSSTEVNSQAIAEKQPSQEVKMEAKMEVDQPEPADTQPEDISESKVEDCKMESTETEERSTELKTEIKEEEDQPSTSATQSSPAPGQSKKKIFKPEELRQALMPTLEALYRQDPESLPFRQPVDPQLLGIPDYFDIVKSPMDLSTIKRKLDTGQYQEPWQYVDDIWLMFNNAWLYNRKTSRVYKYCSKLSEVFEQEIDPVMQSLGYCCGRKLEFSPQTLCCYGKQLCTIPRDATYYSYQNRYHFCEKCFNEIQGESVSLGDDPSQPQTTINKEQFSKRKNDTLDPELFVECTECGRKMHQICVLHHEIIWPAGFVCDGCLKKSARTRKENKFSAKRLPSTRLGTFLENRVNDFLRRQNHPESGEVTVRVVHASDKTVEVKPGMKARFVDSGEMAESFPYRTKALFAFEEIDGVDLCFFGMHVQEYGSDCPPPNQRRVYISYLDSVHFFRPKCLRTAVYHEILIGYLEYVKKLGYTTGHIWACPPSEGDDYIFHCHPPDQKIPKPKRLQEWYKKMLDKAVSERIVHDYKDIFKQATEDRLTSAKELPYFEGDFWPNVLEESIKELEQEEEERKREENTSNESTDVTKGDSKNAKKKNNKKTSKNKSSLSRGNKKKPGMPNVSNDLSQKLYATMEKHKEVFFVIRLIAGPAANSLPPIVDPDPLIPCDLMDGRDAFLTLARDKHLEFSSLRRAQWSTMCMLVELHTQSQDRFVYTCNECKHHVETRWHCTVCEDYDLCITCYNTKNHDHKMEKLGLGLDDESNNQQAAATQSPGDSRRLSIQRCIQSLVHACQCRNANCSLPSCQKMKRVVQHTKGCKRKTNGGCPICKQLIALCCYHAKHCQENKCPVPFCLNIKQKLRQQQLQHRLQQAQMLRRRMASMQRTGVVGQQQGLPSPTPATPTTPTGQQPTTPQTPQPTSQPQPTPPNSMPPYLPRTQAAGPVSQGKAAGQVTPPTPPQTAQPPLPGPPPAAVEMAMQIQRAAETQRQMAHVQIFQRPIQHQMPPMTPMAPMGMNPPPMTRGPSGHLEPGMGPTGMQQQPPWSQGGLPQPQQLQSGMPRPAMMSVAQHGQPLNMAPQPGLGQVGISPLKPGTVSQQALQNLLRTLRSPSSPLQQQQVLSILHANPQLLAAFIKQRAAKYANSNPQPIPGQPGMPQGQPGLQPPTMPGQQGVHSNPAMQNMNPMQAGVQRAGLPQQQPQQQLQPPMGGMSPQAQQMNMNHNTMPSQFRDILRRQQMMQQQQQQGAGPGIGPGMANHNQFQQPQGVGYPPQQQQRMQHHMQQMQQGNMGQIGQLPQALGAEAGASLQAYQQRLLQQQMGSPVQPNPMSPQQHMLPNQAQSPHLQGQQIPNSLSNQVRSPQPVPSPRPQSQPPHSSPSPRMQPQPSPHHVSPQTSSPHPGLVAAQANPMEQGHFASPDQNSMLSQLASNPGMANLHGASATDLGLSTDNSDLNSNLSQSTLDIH

B1: Histone deacetylase 7 (protein, UniProt Q8WUI4 1-952)
chain: MDLRVGQRPPVEPPPEPTLLALQRPQRLHHHLFLAGLQQQRSVEPMRLSMDTPMPELQVGPQEQELRQLLHKDKSKRSAVASSVVKQKLAEVILKKQQAALERTVHPNSPGIPYRTLEPLETEGATRSMLSSFLPPVPSLPSDPPEHFPLRKTVSEPNLKLRYKPKKSLERRKNPLLRKESAPPSLRRRPAETLGDSSPSSSSTPASGCSSPNDSEHGPNPILGSEALLGQRLRLQETSVAPFALPTVSLLPAITLGLPAPARADSDRRTHPTLGPRGPILGSPHTPLFLPHGLEPEAGGTLPSRLQPILLLDPSGSHAPLLTVPGLGPLPFHFAQSLMTTERLSGSGLHWPLSRTRSEPLPPSATAPPPPGPMQPRLEQLKTHVQVIKRSAKPSEKPRLRQIPSAEDLETDGGGPGQVVDDGLEHRELGHGQPEARGPAPLQQHPQVLLWEQQRLAGRLPRGSTGDTVLLPLAQGGHRPLSRAQSSPAAPASLSAPEPASQARVLSSSETPARTLPFTTGLIYDSVMLKHQCSCGDNSRHPEHAGRIQSIWSRLQERGLRSQCECLRGRKASLEELQSVHSERHVLLYGTNPLSRLKLDNGKLAGLLAQRMFVMLPCGGVGVDTDTIWNELHSSNAARWAAGSVTDLAFKVASRELKNGFAVVRPPGHHADHSTAMGFCFFNSVAIACRQLQQQSKASKILIVDWDVHHGNGTQQTFYQDPSVLYISLHRHDDGNFFPGSGAVDEVGAGSGEGFNVNVAWAGGLDPPMGDPEYLAAFRIVVMPIAREFSPDLVLVSAGFDAAEGHPAPLGGYHVSAKCFGYMTQQLMNLAGGAVVLALEGGHDLTAICDASEACVAALLGNRVDPLSEEGWKQKPNLNAIRSLEAVIRVHSKYWGCMQRLASCPDSWVPRVPGADKEEVEAVTALASLSVGILAEDRPSEQLVEEEEPMNL

How the values were obtained:
[1] = biological target: T1, Histone deacetylase 7 (human (endogenous in WI-38)) (UniProt Q8WUI4); assay: co-IP; WI-38 cells treated with ET-1 (10 nM) for 10 min; supernatants immunoprecipitated with antibodies specific for HDAC7, c-Jun or p300 with protein A beads overnight at 4 °C; Western blotting; also after transfection of HDAC7 siRNA or p300 siRNA for 24 h
T1 sequence: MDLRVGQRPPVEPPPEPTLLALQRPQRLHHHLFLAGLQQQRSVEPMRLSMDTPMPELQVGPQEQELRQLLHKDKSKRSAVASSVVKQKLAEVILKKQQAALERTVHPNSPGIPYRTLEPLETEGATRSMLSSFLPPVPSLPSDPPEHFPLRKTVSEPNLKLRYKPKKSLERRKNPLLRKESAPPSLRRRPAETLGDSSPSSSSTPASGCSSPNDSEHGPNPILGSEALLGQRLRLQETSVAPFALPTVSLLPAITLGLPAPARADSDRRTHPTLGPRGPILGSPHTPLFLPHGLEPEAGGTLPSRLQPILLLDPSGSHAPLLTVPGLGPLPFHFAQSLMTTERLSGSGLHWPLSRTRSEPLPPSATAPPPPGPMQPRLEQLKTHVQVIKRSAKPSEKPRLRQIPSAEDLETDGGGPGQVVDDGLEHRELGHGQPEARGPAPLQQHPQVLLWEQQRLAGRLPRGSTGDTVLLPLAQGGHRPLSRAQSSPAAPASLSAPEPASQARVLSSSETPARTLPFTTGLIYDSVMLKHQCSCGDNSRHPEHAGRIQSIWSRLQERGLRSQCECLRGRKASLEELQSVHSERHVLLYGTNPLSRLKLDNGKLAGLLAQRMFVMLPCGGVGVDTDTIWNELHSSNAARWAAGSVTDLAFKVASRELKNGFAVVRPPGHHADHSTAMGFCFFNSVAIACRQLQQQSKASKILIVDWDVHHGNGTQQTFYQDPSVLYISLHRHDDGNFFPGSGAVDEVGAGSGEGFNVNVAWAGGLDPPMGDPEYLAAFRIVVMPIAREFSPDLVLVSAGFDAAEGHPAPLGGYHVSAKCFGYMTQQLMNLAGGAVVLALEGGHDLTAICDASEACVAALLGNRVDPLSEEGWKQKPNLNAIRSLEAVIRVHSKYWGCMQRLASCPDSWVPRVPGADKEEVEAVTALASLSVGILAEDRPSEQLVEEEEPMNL

[2] = biological target: c-Jun (human (endogenous in WI-38)) (UniProt P05412); assay: as above

Molecule	binding [1]	binding [2]
p300 (from UniProt Q09472 1-2414)	binds	
B1		binds
